{"source": "PubChem BioAssay AID540276", "about": "(National Center for Advancing Translational Sciences (NCATS), 2011)", "note": "The campaign covered roughly 300,000 compounds. About 5,400 (1.8%) were called active. The inconclusive results got no clear call from the source; some entries with a clear call stand among them for comparison. Calls come from the whole dose curve; tested in HEK293 cells. Potencies of inconclusive entries are doubtful fits and often do not repeat. Potency is the fitted concentration of half-maximal effect.", "data": [{"assay": "qHTS for inhibitors of binding or entry into cells for Marburg Virus", "conditions": "Marburg virus pseudotyped entry inhibition, cell reporter; series mostly up to 37.8 µM", "values": [{"smiles": "O=C(/C=C/Nc1ccc(Br)cc1F)c1ccco1", "Potency": "active: 1.41 µM"}, {"smiles": "O=C(Nc1ccncc1)c1ccc(N2CCCC2=O)cc1", "Potency": "inconclusive: 5.62 µM [inhibitor, single point]"}, {"smiles": "Cc1cc(C(=O)N/N=C/c2cc([N+](=O)[O-])cc(C)c2O)n[nH]1", "Potency": "inconclusive: 11.6 µM [inhibitor, partial curve, poor fit]"}, {"smiles": "COc1ccc(O[C@H]2C=C[C@@H](c3ccccc3)O[C@H]2CON=C(C)CCN2CCCc3nc(C)c(C)cc32)cc1", "Potency": "inconclusive: 0.266 µM [inhibitor, full curve, poor fit]"}, {"smiles": "COc1cccc(-c2cc3nc(-c4ccccc4)cc(N4CCC5(CC4)OCCO5)n3n2)c1", "Potency": "inconclusive: 23.1 µM [inhibitor, partial curve]"}, {"smiles": "Cc1ccccc1Nc1cc(C(=O)NC2CCCC2)c2ccccc2n1", "Potency": "inactive"}, {"smiles": "Cc1[nH]c2c(C)cccc2c1CCNC(=O)c1ccc2c(c1[N+](=O)[O-])C(=O)c1ccccc1C2=O", "Potency": "inconclusive: 12.6 µM [inhibitor, partial curve]"}, {"smiles": "Cn1c(=O)c(C(=O)NNC(=O)c2ccccc2F)c(O)c2ccccc21", "Potency": "inconclusive: 11.2 µM [inhibitor, single point]"}, {"smiles": "Cc1nc(-c2nc(-c3c(C(=O)NNC(=O)c4ccc(Cl)cc4)noc3C)cs2)cs1", "Potency": "inconclusive: 1.26 µM [inhibitor, single point]"}, {"smiles": "Cc1occc1C(=O)N/N=C/c1ccc(-c2ccccc2)cc1", "Potency": "inconclusive: 7.94 µM [inhibitor, partial curve, poor fit]"}, {"smiles": "CC(=O)C1=C(O)C(=O)N(c2ccc(C)cc2)C1c1ccccn1", "note": "(stereo not given)", "Potency": "inactive"}, {"smiles": "O=c1c2ccccc2nc(SCc2cc(=O)n3ccsc3n2)n1CCCO", "Potency": "inactive"}, {"smiles": "COc1ccccc1N1CCN(Cc2ccc(F)cc2)CC1", "Potency": "inconclusive: 35.5 µM [inhibitor, single point]"}, {"smiles": "CCn1c2ccccc2c2cc(NC(=O)c3cc(OC)cc(OC)c3)ccc21", "Potency": "inconclusive: 15.8 µM [inhibitor, partial curve, poor fit]"}, {"smiles": "COc1cccc(-c2nc(SCC(=O)NCC3CCCO3)c(-c3ccc(C)cc3)[nH]2)c1", "note": "(stereo not given)", "Potency": "inconclusive: 1.41 µM [inhibitor, partial curve, poor fit]"}, {"smiles": "CCn1cc(CNCc2cn(-c3ccccc3C)nc2-c2ccc(OC)c(F)c2)cn1", "Potency": "inconclusive: 35.5 µM [inhibitor, single point]"}, {"smiles": "CCCCNC1=C(Br)C(=O)CC(C)(C)C1", "Potency": "inconclusive: 3.98 µM [inhibitor, single point]"}, {"smiles": "C=C(C)CSc1nc2nc(C)c(Br)cc2[nH]1", "Potency": "inactive"}, {"smiles": "Cc1ccccc1C(=O)NNC(=O)C1CCN(c2ncccn2)CC1", "Potency": "inconclusive: 29.1 µM [activator, single point]"}, {"smiles": "O=C(N/N=C/C=C/c1ccccc1)c1n[nH]c2c1CCC2", "Potency": "inconclusive: 1.26 µM [inhibitor, full curve, poor fit]"}, {"smiles": "Cc1cc(Cl)ccc1NC(=S)Nc1ccccn1", "Potency": "inactive"}, {"smiles": "CC(c1ccccc1)N1CCC(CNC(=S)Nc2cccc(Cl)c2)C1", "note": "(stereo not given)", "Potency": "inconclusive: 5.01 µM [inhibitor, full curve, poor fit]"}, {"smiles": "O=C(O)c1cccc(Cn2c(Cl)c(/C=N/NC(=O)c3cccc(O)c3)sc2=O)c1", "Potency": "inactive"}, {"smiles": "O=C(NCCC(=O)N1CCN(c2cccc(Cl)c2)CC1)c1ccc(Br)cc1", "Potency": "inconclusive: 2.82 µM [inhibitor, single point]"}, {"smiles": "Cc1ccc(NC(=S)Nc2ccc(F)cc2)c(C)c1", "Potency": "inactive"}, {"smiles": "CCOc1ccc2nc(N3CCC(C(=O)Nc4ccccc4CC)CC3)sc2c1", "Potency": "inconclusive: 11.2 µM [activator, single point]"}, {"smiles": "N#CCC(=O)Nc1ccc(C(=O)N2CCN(c3ccccn3)CC2)cc1", "Potency": "inactive"}, {"smiles": "Cc1cccc(NS(=O)(=O)c2cccc(C(=O)NNC(=O)c3ccccc3O)c2)c1", "Potency": "inconclusive: 12.6 µM [inhibitor, partial curve, poor fit]"}, {"smiles": "Cc1oc(/N=C/c2ccc(Cl)cc2)c(C#N)c1C", "Potency": "inconclusive: 6.51 µM [inhibitor, single point]"}, {"smiles": "CSC(=NS(=O)(=O)c1ccccc1)SC", "Potency": "inactive"}, {"smiles": "CCc1ccc(C2(C)SC(NC(C)=O)=NN2C(C)=O)cc1", "note": "(stereo not given)", "Potency": "inactive"}, {"smiles": "Cc1ccc2[nH]c(C)cc(=S)c2c1", "Potency": "inconclusive: 35.5 µM [inhibitor, single point]"}, {"smiles": "O=C(Nc1cccc(F)c1)OC(CN1CCCCC1)C(F)(F)F", "note": "(stereo not given)", "Potency": "inconclusive: 11.2 µM [inhibitor, partial curve, poor fit]"}, {"smiles": "CCc1ccc(NC(=O)CSc2nnc(-c3ccco3)o2)cc1", "Potency": "inconclusive: 25.1 µM [activator, single point]"}, {"smiles": "CCN(c1ccccc1)S(=O)(=O)c1ccc(NC(=S)NC(=O)c2cccs2)cc1", "Potency": "inconclusive: 15.8 µM [inhibitor, single point]"}, {"smiles": "CC1CCCC(C)N1C(=O)COc1ccc(C(=O)Nc2ccccc2N2CCOCC2)cc1", "note": "(stereo not given)", "Potency": "inconclusive: 14.1 µM [inhibitor, single point]"}, {"smiles": "CCc1ccc(-c2nc(CS(=O)CC(=O)NCc3cccnc3)c(C)o2)cc1", "note": "(stereo not given)", "Potency": "inactive"}, {"smiles": "Cc1ccc(-n2c(C)cc(/C=c3/sc4nc5ccccc5n4c3=O)c2C)cc1", "Potency": "active: 0.282 µM"}, {"smiles": "O=C(CCC1CCCN(C(=O)c2ccc3cc[nH]c3c2)C1)N1CCN(c2ccccn2)CC1", "note": "(stereo not given)", "Potency": "inconclusive: 11.2 µM [inhibitor, single point]"}, {"smiles": "CCS(=O)(=O)c1ncc(Cl)c(C(=O)Nc2ccc(S(=O)(=O)N3CCC(C)CC3)cc2)n1", "Potency": "inconclusive: 14.1 µM [inhibitor, partial curve, poor fit]"}, {"smiles": "Cc1ccc(CNC(=O)CCc2c(C)c3ccc(O)c(C)c3oc2=O)cc1", "Potency": "inactive"}, {"smiles": "COc1ccc(Nc2nnc(-c3ccccc3)c3ccccc23)cc1C(=O)N1CCCCC1", "Potency": "inconclusive: 11.2 µM [inhibitor, partial curve, poor fit]"}, {"smiles": "COc1cccc(CN2CCNC(=O)C2CC(=O)N(C)Cc2nc(C)cs2)c1OC", "note": "(stereo not given)", "Potency": "inconclusive: 6.31 µM [inhibitor, single point]"}, {"smiles": "CSc1cccc(Nc2cc(C(=O)NCCc3ccc(Cl)cc3)c3ccccc3n2)c1", "Potency": "inconclusive: 10 µM [inhibitor, partial curve, poor fit]"}, {"smiles": "CCCNC(=O)OC[C@H]1O[C@@H](CCO/N=C2/[C@H]3O[C@@H]3[C@@H](O)[C@H]3[C@H]2CCn2c(=O)n(-c4ccccc4)c(=O)n23)C=C[C@@H]1Oc1ccc(OC)cc1", "Potency": "inconclusive: 2.66 µM [activator, single point]"}, {"smiles": "Cc1ccc(C)c(OCC(=O)Nc2cc(C)on2)c1", "Potency": "inconclusive: 13 µM [activator, partial curve, poor fit]"}, {"smiles": "CCCN1CCC(Oc2cccc(C(=O)NCCc3ccccc3)c2)CC1", "Potency": "inconclusive: 0.447 µM [activator, partial curve, poor fit]"}, {"smiles": "CCCN(CC(=O)Nc1ccccc1C)C(=O)CCCNC(=O)c1ccc(Cl)cc1", "Potency": "inconclusive: 0.708 µM [inhibitor, single point]"}, {"smiles": "CCN(CC)S(=O)(=O)c1cc([N+](=O)[O-])ccc1NNC(=O)Nc1ccccc1OC", "Potency": "inconclusive: 7.94 µM [inhibitor, partial curve, poor fit]"}, {"smiles": "CC(C)(C)c1onc(OCP(=O)(O)O)c1C[C@@H](N)C(=O)O", "Potency": "inconclusive: 16.4 µM [activator, single point]"}, {"smiles": "Cc1ccc(-c2nc3ncccn3c2Nc2ccc3c(c2)OCCO3)o1", "Potency": "inconclusive: 2.51 µM [activator, partial curve, poor fit]"}, {"smiles": "CCOc1ccc(NC(=O)C2(c3ccc(OC)c(OC)c3)CCCC2)cc1", "Potency": "inconclusive: 5.62 µM [inhibitor, partial curve, poor fit]"}, {"smiles": "CCOC(=O)c1ccc(N/C=C2\\CCCCC2=O)cc1", "Potency": "inactive"}, {"smiles": "CCN(CC)C(=O)COc1ccc(/C=N/NC(=O)c2cc(-c3ccccc3OC)nc3ccccc23)cc1OC", "Potency": "inconclusive: 5.62 µM [inhibitor, single point]"}, {"smiles": "CS(=O)(=O)Nc1cccc(C2=NN(C(=O)CCCC(=O)O)C(c3cccs3)C2)c1", "note": "(stereo not given)", "Potency": "inactive"}, {"smiles": "O=C(Nc1ccccc1)Nc1ccc2snnc2c1", "Potency": "inconclusive: 5.01 µM [activator, full curve, poor fit]"}, {"smiles": "Cc1[nH]c2ccccc2c1C(=O)COC(=O)CCS(=O)(=O)c1ccccc1Cl", "Potency": "inconclusive: 1.3 µM [inhibitor, partial curve, poor fit]"}, {"smiles": "COC(=O)COc1ccc2oc(-c3ccc(OC)cc3)cc(=O)c2c1", "Potency": "inconclusive: 35.5 µM [activator, partial curve, poor fit]"}, {"smiles": "CC[N+]1=CN(c2ccccc2)C(C)=CC1(C)C", "Potency": "inactive"}, {"smiles": "CN(/N=C/c1ccc2c(c1)OCO2)c1nc(N2CCOCC2)nc(N2CCOCC2)n1", "Potency": "inactive"}, {"smiles": "COc1ccc(C(=O)COC(=O)CCNS(=O)(=O)c2ccccc2)c(OC)c1", "Potency": "inconclusive: 12.6 µM [activator, single point]"}, {"smiles": "CCC1(C)CC(c2nc(-c3ccc(OC)cc3)cs2)CCS1", "note": "(stereo not given)", "Potency": "inactive"}, {"smiles": "O=C(NNc1ncc(C(F)(F)F)cc1Cl)c1c(Cl)cccc1Cl", "Potency": "inconclusive: 2.31 µM [inhibitor, partial curve, poor fit]"}, {"smiles": "COCCN(C(=O)COC(=O)c1oc2ccc(OC)cc2c1C)c1c(N)n(Cc2ccccc2)c(=O)[nH]c1=O", "Potency": "inconclusive: 3.16 µM [inhibitor, partial curve, poor fit]"}, {"smiles": "CCOC(=O)N/N=C/c1ccc(OCCSc2ccc(Cl)cc2)c(OCC)c1", "Potency": "inconclusive: 29.1 µM [inhibitor, single point]"}]}]}
